Data published in PubChem BioAssay AID504444 (National Center for Advancing Translational Sciences (NCATS), 2011).
About 7,500 (2.1%) of roughly 360,000 compounds were called active. Inconclusive results, whose numbers are uncertain, are shown with a selection of clear calls. Calls come from the whole dose curve; as a rule, active = well fitted inhibition curve with a large enough effect; inconclusive = small, poorly fitted or top-dose-only effect, or effect the other way; inactive = flat fitted curve, though single readings scatter. Where the call is inconclusive, the potency comes from a doubtful curve fit.

Test: Nrf2 qHTS screen for inhibitors; note: nearly all actives have a fitted effect of over 60% in size
Conditions: A549 ARE-Fluc reporter, luciferase luminescence, 18-24 h; activity change, negative = inhibition: at 46 µM (top of the series)
Procedure, shortened: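 Nrf2 function is reported as luminescence of an ARE-controlled luciferase in A549 cells. Compounds were tested at several concentrations, and a CellTiter-Fluor read on the same wells flagged cytotoxicity.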
% is set by controls: 0 for no effect and ±100 for the full control effect; potency is the fitted concentration of half-maximal effect.

Compound | Potency | activity change, negative = inhibition
CCOC(=O)c1cnc2c(c(C)nn2C)c1Oc1ccc(Cl)cc1 | inconclusive: 20.6 µM [falling, single point] | –
CC(Oc1ccc(Br)cc1)c1nc2c3ccccc3nc(=S)n2[nH]1 (stereo not given) | inconclusive: 29.1 µM [falling, single point] | –
O=c1c2c3c(sc2nc2sc(CN4CCOCC4)cn12)CCCC3 | inconclusive: 18.4 µM [activator, single point] | –
COc1ccc(-c2nc3n(n2)C(c2ccc(OC)cc2)C(C(=O)Nc2cccnc2)=C(C)N3)cc1 (stereo not given) | – | inactive: -5.97%
O=c1[nH]c(Nc2ccc3c(c2)OCCO3)nnc1Cc1ccccc1 | – | inactive: 0.939%
O=C(O)C1CCCCC1C(=O)Nc1nc(-c2ccc(Cl)s2)cs1 (stereo not given) | – | inactive: -5.4%
CN(C)S(=O)(=O)Oc1ccc(C(=O)Nc2cccc(C(F)(F)F)c2)cc1 | active: 23.1 µM | –
CCCCCCC1C(C#N)=C(N)OC2=C1C(=O)CC(C)(C)C2 (stereo not given) | inconclusive: 3.26 µM [falling, single point] | –
O=C(c1ccco1)N1CCN(C(=O)c2ccc(Cn3cc(Br)cn3)o2)CC1 | inconclusive: 7.31 µM [falling, partial curve] | –
CCOC(=O)C1CCCN(S(=O)(=O)c2ccc(S(N)(=O)=O)cc2)C1 (stereo not given) | inconclusive: 23.1 µM [falling, single point] | –
CCOc1ccc(N2CC(c3nc(-c4cc(OC)c(OC)c(OC)c4)no3)CC2=O)cc1 (stereo not given) | – | inactive: -14.9%
CCOc1ccc(N(C)S(=O)(=O)c2ccc3c(c2)C(C)(C)C(=O)N3C)cc1 | inconclusive: 4.11 µM [activator, full curve] | –
O=c1oc(/C=C/c2ccccc2)nc2ccccc12 | inconclusive: 2.59 µM [activator, partial curve] | –
CCOc1cc(CNCc2ccncc2)cc(Br)c1OCc1ccccc1F | inconclusive: 18.4 µM [falling, single point] | –
O=C(Cn1nc(-c2ccccc2)ccc1=O)Nc1ccc(NC(=O)c2ccccn2)cc1 | inconclusive: 29.1 µM [falling, single point] | –
COc1ccc(CSc2nc3ncccc3[nH]2)cc1 | inconclusive: 20.6 µM [activator, single point] | –
CC1CCN(c2c(NCC3CCC(C(=O)NCCc4ccc(Cl)cc4)CC3)c(=O)c2=O)CC1 (stereo not given) | inconclusive: 20.6 µM [falling, single point] | –
O=C(Cn1nnc(-c2ccc(CN3CCOCC3)cc2)n1)N(c1ccccc1)c1ccccc1 | – | inactive: -40.7%
COc1ccc(-c2c(C)[nH]n3c(=O)c(Cc4ccccc4)c(C)nc23)cc1 | inconclusive: 23.1 µM [falling, single point] | –
Cc1ccnc(NC(=O)COc2ccc3oc4c(c3c2)CCCC4)c1 | inconclusive: 14.6 µM [activator, partial curve, poor fit] | –
CCCCn1c(N)c(N(C)C(=O)C2CC(=O)N(Cc3ccco3)C2)c(=O)[nH]c1=O (stereo not given) | inconclusive: 29.1 µM [activator, partial curve, poor fit] | –
O=C(CSc1nnc(-c2ccc(F)cc2)o1)NC1CCCC1 | inconclusive: 16.4 µM [falling, partial curve] | –

One compound at a time (already shown).
O=c1c2c3c(sc2nc2sc(CN4CCOCC4)cn12)CCCC3 reads Potency: inconclusive: 18.4 µM [activator, single point]
CCOc1ccc(N(C)S(=O)(=O)c2ccc3c(c2)C(C)(C)C(=O)N3C)cc1 reads Potency: inconclusive: 4.11 µM [activator, full curve]
O=C(Cn1nc(-c2ccccc2)ccc1=O)Nc1ccc(NC(=O)c2ccccn2)cc1 reads Potency: inconclusive: 29.1 µM [falling, single point]
O=C(O)C1CCCCC1C(=O)Nc1nc(-c2ccc(Cl)s2)cs1 (stereo not given) reads activity change, negative = inhibition: inactive: -5.4%

Next part.

Compound | Potency | activity change, negative = inhibition
O=C(CSc1ncnc2nc[nH]c12)c1ccc(Cl)cc1 | inconclusive: 29.1 µM [activator, single point] | –
COc1ccc(NC(=O)Nc2nc3ccccc3s2)cc1 | inconclusive: 29.1 µM [activator, single point] | –
CCCC(=O)NC1CCc2cc(OC)c(OC)c(OC)c2-c2ccc(OC)c(=O)cc21 (stereo not given) | inconclusive: 0.206 µM [activator, partial curve, poor fit] | –
CCOc1cc(/C=N/N2CCOCC2)ccc1OCc1ccc(C(=O)OC)o1 | inconclusive: 5.8 µM [falling, full curve] | –
CC(C)N(C(=O)c1ccc2nc(-c3ccccc3)c(-c3ccccc3)nc2c1)C(C)C | inconclusive: 8.2 µM [falling, partial curve, poor fit] | –
Cc1c(Cl)cccc1NC(=O)CSc1nc2ncc(Cl)cc2[nH]1 | – | inactive: 0.59%
COc1ccccc1C(=O)Nc1ccc2oc(-c3cccc(Cl)c3Cl)nc2c1 | inconclusive: 6.51 µM [falling, single point] | –
O=C(c1ccc(N2CCN(C(=O)c3ccccc3)CC2)cc1)c1cccc(F)c1 | inconclusive: 32.6 µM [falling, single point] | –
CCOC(=O)c1ccc(N2C(=O)c3n[nH]c(C)c3C2c2cccc(Br)c2)cc1 (stereo not given) | inconclusive: 25.9 µM [falling, partial curve, poor fit] | –
Cc1ccc(/C=C/C(=O)NCCc2ccccc2)o1 | – | inactive: 24.1%
CCCC(=O)NC(Nc1cccc(C(F)(F)F)c1)C(Cl)(Cl)Cl (stereo not given) | inconclusive: 29.1 µM [falling, single point] | –
CCCCCn1ncc2c3sc(C)cc3n(C)c2c1=O | inconclusive: 2.31 µM [activator, full curve, poor fit] | –
O=C(COc1c(Cl)cc(Cl)cc1Cl)c1ccc(Cl)cc1 | inconclusive: 20.6 µM [falling, single point] | –
CCCCCCCNC(=O)C1(CC2CC(c3ccc(Cl)cc3)=NO2)CCN(C(=O)CCCCCBr)CC1 (stereo not given) | – | inactive: -17.5%
CC1CCN(S(=O)(=O)c2ccc3c(c2)oc(=O)n3CC(=O)NCc2ccc3c(c2)OCO3)CC1 | inconclusive: 25.9 µM [falling, partial curve, poor fit] | –
CC(=O)c1cn(CC(=O)Nc2ccc(C)cc2)c2ccccc12 | inconclusive: 5.8 µM [falling, partial curve, poor fit] | –
O=c1cc(O)c2c(=O)n(C3CCCCC3)c3ccccc3c2o1 | inconclusive: 18.4 µM [falling, single point] | –
CCOC(=O)CNC(=O)CSc1nnc(NC(=O)c2ccccc2Cl)s1 | inconclusive: 10.3 µM [activator, partial curve] | –
Cc1ccc(CNC(=O)c2nc(SCc3ccccc3F)ncc2Cl)cc1 | – | inactive: 1.8%
Cc1cccc(N2CCN(C(=S)Nc3ccc4nc(N5CCN(C)CC5)cc(C)c4c3)CC2C)c1 (stereo not given) | – | inactive: 6.33%
COc1ccc(CNc2nc3ccccc3n2Cc2ccccc2)cc1OC | inconclusive: 23.1 µM [falling, partial curve] | –
CCc1c(C)sc(NC(=O)c2ccoc2C)c1C(N)=O | inconclusive: 16.4 µM [activator, single point] | –

Compound | Potency | activity change, negative = inhibition
Cc1ccccc1N=Nc1c(C)[nH]n(-c2ccccc2)c1=O | inconclusive: 0.291 µM [activator, full curve, poor fit] | –
Cc1cccc(NC(=O)Nc2ccccc2)n1 | inconclusive: 2.31 µM [activator, full curve] | –
C/C(=N\NC(=O)c1cccc(Cl)c1)c1cccc(NC(=O)C(C)C)c1 | inconclusive: 10.3 µM [falling, partial curve, poor fit] | –
C(=N\Nc1nc(N2CCCCCC2)nc(N2CCCCCC2)n1)/c1ccccc1 | – | inactive: -15.4%
COc1cccc(/C=C/c2nc3c(cnn3-c3ccccc3)c(=O)[nH]2)c1 | inconclusive: 5.17 µM [falling, full curve, poor fit] | –
O=c1[nH]cnc2c1ncn2[C@@H]1O[C@H](CO)[C@@H](O)[C@H]1O | inconclusive: 29.1 µM [activator, single point] | –
COC(=O)Nc1nnc(COc2cccc(C)c2)s1 | inconclusive: 23.1 µM [falling, single point] | –
O=C(N/N=C/c1cn(-c2ccccc2)nc1-c1ccc(F)cc1)c1ccc(Br)o1 | inconclusive: 1.46 µM [activator, partial curve, poor fit] | –
FC(F)(F)c1cccc(-c2nc3nc(Cl)c(Cl)nc3[nH]2)c1 | inconclusive: 16.4 µM [falling, partial curve, poor fit] | –
O=C(N/N=C/c1ccc2c(c1)OCO2)C(=O)N1CCCC1 | inconclusive: 18.4 µM [activator, single point] | –
COc1ccc(NC(=O)c2nc[nH]c2C(=O)Nc2ccccc2C)cc1 | inconclusive: 9.2 µM [falling, partial curve, poor fit] | –
CCCCOc1cc(NCc2ccccc2)c2ncn(C(C)C)c2c1 | inconclusive: 25.9 µM [falling, single point] | –
COc1ccc(CCN(C)C(=O)c2ccc(OCC(=O)N3CCOCC3)c(OC)c2)cc1OC | – | inactive: 3.92%
Cc1sc2nc(-c3cccs3)oc(=O)c2c1C | inconclusive: 29.1 µM [falling, single point] | –
CC(=O)Nc1cccc(/C(C)=N/NC(=O)c2cccs2)c1 | inconclusive: 10.3 µM [activator, partial curve, poor fit] | –
COc1cccc(/C=N/NC(=O)c2c(C)nc3ccc(Cl)cn23)c1O | inconclusive: 6.51 µM [falling, single point] | –
CCCOC(=O)Nc1ccc(N2CCCCC2)cc1 | inconclusive: 0.184 µM [activator, full curve, poor fit] | –
O=C1CCCN1CCCN1C(=O)N[C@@H](Cc2ccccc2)C1=O | inconclusive: 16.4 µM [activator, partial curve, poor fit] | –
Cc1ccc(C2CCN(C(=O)c3cnn(-c4cccc(Cl)c4)c3C3CCN(C(=O)OC(C)(C)C)CC3)C2)cc1 (stereo not given) | inconclusive: 29.1 µM [falling, single point] | –
COc1ccc(C(=O)NCCSc2ccccc2C)cc1 | inconclusive: 2.59 µM [activator, full curve] | –
C[C@H]1C=C(C(=O)NCc2nc3ccccc3[nH]2)O[C@@H](OCCCCO)C1 | – | inactive: -0.247%
